Results are given in words; binding and its absence hold for the method and conditions named. Binding seen in cells or lysates may run through a third protein. Some results given as binding are weak or reduced against the parent protein; the word gives no strength.

Chains of the proteins cited; added tags and fusions are not shown.
UniProt Q99836: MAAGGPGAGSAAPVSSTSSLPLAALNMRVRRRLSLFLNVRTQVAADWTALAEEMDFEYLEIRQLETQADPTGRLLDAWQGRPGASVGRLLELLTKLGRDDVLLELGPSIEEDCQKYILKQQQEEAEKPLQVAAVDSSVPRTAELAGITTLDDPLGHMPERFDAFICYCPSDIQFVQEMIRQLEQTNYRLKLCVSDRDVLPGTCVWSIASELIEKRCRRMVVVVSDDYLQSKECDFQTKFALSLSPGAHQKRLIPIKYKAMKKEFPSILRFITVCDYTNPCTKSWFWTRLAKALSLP
UniProt Q13489: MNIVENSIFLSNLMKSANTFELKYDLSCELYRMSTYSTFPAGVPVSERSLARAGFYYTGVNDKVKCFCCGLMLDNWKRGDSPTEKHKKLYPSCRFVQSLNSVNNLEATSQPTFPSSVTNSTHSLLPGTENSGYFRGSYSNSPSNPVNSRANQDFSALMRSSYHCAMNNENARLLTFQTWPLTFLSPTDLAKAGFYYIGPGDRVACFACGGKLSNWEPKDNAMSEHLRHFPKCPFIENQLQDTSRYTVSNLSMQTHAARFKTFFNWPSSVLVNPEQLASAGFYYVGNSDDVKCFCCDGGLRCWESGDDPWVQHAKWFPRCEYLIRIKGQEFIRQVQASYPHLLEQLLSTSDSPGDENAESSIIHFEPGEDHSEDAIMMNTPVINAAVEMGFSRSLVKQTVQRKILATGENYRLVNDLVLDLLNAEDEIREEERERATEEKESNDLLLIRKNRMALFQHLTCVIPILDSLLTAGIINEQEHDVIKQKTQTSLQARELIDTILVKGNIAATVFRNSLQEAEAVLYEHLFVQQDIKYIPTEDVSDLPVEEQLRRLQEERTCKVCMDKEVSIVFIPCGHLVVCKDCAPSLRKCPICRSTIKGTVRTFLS

This is an account of results in article PMC9471085.

The target of test [1] is MyD88 (human (endogenous in MDA-MB-231)) (UniProt Q99836). Put plainly: co-IP; as a1, but immunoprecipitated with anti-MyD88 antibody with 10 μM of MyD88 inhibitor 4210.
For test [2] the target is unchanged. Put plainly: co-IP; 300 μg of MDA-MB-231 lysate protein (M-PER lysis buffer with protease inhibitor; samples as in Figure 5B, LPS 100 ng/ml, 8 h) incubated overnight with 1 μg MyD88 polyclonal antibody, Protein A/G affinity gel at 4°C, three washes; blot with pan cIAP antibody.

Take cIAP2 (from UniProt Q13489 1-604): the figures for the binding entry in test [1] and in test [2] were “no binding (condition: with 10 μM of MyD88 inhibitor 4210)” and “binds”, respectively.
